{
  "sequences": {"note": "Chains of the proteins cited; added tags and fusions are not shown. Lines headed by an entry give the natural chain unless they say otherwise; changes in a name come on top. Residues count along the entry.", "UniProt Q66K14": "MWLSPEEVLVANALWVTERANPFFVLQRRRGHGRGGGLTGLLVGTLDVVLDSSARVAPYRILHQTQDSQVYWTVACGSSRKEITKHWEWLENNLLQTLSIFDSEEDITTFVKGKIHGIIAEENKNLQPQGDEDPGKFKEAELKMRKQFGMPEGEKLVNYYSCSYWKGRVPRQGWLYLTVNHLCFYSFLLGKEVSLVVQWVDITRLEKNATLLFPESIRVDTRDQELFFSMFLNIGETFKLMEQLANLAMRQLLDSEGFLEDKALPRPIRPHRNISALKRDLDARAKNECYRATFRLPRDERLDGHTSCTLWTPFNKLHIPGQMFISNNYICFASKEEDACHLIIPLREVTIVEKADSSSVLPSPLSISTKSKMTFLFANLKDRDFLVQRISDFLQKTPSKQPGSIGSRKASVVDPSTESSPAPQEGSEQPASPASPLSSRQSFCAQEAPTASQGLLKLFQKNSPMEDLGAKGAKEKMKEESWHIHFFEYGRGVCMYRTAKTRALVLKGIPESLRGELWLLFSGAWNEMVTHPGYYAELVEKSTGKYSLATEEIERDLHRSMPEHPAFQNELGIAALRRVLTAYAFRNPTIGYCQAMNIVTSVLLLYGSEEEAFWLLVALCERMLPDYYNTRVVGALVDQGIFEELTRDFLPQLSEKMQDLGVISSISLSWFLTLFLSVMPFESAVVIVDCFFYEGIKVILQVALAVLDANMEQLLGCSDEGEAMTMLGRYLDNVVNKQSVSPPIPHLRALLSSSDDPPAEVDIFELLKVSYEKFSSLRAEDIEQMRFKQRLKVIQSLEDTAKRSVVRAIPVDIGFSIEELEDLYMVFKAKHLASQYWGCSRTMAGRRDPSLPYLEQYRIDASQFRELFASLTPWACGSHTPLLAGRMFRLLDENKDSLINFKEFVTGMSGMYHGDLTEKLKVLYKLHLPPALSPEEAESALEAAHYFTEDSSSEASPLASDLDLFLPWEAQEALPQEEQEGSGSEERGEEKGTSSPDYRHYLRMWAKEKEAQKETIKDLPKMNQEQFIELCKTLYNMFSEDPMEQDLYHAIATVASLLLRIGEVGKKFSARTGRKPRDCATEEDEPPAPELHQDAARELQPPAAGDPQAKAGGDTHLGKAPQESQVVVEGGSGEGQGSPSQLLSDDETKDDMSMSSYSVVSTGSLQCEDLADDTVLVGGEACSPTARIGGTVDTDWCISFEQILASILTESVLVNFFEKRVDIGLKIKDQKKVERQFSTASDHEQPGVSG", "UniProt Q6PIY7": "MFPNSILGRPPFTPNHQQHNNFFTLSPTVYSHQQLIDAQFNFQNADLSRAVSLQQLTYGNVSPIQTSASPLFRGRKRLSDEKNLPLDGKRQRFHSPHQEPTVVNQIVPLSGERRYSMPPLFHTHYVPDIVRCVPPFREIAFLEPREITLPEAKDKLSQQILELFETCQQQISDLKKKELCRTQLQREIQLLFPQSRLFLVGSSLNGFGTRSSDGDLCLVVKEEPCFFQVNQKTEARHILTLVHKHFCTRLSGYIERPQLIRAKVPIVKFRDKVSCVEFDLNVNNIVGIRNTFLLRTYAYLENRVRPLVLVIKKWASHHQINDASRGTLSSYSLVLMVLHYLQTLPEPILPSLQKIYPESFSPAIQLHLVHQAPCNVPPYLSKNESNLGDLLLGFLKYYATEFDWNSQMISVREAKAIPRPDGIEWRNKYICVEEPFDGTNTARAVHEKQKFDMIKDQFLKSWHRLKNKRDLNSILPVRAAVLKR", "UniProt Q8NHU6, 380-399": "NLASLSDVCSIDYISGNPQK", "UniProt Q9UPU7": "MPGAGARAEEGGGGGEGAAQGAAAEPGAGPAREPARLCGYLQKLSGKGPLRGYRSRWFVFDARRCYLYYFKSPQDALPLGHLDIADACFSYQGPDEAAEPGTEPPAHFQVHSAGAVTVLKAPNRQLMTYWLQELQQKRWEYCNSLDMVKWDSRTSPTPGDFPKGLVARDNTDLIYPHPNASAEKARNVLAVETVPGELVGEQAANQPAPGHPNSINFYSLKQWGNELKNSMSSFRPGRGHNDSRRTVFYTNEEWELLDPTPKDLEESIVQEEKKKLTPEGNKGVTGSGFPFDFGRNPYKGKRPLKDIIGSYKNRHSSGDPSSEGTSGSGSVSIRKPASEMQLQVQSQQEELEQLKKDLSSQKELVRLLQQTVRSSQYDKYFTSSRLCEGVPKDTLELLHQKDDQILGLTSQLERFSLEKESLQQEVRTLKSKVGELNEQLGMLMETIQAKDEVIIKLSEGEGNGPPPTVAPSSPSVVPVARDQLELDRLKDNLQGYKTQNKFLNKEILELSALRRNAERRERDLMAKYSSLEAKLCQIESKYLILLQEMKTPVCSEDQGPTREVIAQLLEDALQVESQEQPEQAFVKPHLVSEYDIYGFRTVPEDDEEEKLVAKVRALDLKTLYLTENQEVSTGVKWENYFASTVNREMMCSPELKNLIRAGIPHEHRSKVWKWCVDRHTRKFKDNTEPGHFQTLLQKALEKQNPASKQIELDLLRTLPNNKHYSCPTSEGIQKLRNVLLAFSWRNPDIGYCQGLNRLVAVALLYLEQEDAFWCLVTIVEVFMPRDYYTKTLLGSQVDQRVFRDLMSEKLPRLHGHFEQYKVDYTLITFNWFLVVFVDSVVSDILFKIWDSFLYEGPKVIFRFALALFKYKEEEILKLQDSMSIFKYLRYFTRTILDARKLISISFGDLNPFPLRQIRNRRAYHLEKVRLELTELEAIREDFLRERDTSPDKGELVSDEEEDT", "UniProt Q12962": "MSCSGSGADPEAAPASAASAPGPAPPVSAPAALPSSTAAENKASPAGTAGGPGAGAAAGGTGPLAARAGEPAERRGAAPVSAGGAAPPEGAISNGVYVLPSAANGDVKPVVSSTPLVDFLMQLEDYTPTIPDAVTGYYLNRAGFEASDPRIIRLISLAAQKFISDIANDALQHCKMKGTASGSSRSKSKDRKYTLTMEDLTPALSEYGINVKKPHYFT", "UniProt O15040": "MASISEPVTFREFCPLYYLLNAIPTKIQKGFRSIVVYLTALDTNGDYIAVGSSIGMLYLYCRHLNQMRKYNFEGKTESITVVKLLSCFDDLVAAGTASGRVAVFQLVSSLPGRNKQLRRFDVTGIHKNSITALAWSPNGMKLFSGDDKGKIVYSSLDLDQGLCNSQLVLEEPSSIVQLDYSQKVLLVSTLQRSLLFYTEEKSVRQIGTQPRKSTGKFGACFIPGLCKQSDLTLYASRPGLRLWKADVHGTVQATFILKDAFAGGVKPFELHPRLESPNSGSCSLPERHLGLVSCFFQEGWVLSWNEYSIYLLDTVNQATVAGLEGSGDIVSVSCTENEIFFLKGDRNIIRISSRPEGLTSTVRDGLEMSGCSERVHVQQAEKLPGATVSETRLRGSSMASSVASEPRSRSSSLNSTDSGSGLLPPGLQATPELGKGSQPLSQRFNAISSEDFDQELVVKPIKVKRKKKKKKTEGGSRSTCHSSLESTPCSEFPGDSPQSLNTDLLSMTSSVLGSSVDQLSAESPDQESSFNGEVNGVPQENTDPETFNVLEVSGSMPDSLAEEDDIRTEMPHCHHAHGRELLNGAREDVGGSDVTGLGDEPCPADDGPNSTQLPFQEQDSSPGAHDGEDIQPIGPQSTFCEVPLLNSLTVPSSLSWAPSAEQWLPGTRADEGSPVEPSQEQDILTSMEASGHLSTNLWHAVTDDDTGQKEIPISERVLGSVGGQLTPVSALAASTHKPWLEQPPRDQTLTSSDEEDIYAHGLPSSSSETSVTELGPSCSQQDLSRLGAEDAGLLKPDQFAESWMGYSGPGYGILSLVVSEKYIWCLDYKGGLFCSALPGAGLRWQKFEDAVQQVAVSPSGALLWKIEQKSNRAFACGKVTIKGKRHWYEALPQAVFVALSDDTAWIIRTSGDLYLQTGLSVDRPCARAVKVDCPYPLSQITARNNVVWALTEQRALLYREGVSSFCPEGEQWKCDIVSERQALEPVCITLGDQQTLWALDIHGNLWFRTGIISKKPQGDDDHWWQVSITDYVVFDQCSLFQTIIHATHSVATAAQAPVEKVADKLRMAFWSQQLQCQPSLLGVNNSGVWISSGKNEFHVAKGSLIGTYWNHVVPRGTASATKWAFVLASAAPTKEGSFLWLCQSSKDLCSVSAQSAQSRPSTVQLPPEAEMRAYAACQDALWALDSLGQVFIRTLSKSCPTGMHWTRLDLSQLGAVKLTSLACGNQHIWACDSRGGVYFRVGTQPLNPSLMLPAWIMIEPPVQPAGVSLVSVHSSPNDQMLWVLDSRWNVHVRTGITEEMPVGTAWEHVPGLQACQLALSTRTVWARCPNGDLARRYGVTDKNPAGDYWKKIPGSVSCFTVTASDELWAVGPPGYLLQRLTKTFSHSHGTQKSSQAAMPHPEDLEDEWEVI", "UniProt O60343": "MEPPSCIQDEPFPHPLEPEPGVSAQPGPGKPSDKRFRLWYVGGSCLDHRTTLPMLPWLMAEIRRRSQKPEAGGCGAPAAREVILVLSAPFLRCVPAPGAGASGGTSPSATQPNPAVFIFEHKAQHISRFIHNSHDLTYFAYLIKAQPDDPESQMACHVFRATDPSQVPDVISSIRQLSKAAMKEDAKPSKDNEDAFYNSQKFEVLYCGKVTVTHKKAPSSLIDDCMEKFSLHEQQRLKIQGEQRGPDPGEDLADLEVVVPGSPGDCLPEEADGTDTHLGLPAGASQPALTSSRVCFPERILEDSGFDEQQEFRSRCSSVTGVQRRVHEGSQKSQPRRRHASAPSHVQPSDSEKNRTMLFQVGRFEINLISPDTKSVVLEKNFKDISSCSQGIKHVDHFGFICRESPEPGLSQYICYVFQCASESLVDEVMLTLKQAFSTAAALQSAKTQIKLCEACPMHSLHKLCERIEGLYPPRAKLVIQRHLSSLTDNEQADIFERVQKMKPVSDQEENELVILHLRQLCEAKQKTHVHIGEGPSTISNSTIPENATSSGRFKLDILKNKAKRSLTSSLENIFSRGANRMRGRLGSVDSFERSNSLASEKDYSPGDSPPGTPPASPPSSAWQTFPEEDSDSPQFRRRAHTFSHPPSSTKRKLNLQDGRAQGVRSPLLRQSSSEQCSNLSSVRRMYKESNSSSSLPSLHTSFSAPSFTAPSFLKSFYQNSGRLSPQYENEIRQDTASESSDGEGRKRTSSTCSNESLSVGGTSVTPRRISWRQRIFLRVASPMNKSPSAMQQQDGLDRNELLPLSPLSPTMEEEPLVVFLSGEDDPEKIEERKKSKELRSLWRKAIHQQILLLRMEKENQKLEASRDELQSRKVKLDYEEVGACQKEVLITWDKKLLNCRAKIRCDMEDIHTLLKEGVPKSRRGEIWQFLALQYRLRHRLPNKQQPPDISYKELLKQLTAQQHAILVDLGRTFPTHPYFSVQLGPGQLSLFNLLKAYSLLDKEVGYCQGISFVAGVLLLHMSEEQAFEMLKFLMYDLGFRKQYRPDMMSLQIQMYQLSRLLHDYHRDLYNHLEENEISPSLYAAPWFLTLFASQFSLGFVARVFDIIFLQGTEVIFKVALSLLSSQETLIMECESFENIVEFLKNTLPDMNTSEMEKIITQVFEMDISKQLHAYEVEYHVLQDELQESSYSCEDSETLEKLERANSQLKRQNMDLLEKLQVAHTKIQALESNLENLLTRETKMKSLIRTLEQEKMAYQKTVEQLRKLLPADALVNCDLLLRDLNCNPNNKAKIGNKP", "UniProt O75528": "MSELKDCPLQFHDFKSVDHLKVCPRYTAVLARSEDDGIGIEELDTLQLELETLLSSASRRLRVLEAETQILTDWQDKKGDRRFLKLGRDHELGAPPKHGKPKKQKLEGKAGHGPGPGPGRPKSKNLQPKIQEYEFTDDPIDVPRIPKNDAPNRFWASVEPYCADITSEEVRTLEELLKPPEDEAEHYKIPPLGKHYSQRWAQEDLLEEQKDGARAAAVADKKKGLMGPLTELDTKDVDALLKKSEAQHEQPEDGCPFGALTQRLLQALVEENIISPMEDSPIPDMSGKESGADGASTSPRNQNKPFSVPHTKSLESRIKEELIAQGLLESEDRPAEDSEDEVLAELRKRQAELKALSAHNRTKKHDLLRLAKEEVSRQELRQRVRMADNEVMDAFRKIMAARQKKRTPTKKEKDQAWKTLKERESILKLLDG", "UniProt Q9NU19": "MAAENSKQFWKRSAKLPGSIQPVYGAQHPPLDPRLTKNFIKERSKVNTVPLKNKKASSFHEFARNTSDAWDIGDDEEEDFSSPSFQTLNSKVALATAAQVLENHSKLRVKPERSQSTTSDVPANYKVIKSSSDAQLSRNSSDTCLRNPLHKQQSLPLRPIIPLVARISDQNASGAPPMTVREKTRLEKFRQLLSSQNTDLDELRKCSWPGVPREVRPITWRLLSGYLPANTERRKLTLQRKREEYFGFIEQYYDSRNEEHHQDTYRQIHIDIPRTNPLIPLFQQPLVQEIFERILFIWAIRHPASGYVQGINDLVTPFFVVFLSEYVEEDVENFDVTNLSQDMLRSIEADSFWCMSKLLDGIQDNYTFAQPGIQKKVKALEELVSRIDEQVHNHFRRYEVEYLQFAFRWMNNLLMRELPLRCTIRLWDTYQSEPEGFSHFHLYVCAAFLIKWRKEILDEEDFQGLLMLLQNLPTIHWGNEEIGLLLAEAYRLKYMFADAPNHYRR"},
  "source": "the supplement of paper PMC11732987",
  "about": "“Enantioselective OTUD7B fragment discovery through chemoproteomics screening and high-throughput optimisation” (Communications Chemistry, 2025)",
  "note": "The other results are listed elsewhere or left out. The data scatter; read single values as rough.",
  "data": [
    {"compound": "ClCC(=O)N[C@H]1CCCc2ccccc12", "experiment": "log2 mean competition ratio of IA-DTB cysteine labelling (DMSO/compound) (log2 ratio); higher = stronger cysteine engagement by compound", "conditions": "200 µM; treatment time: 4 h; cell line lysate: HEK293T", "experimental": "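IA-DTB competitive cysteine chemoproteomics in HEK293T RIPA lysate. Lysates were treated with compound 29 or 30 at 50 or 200 µM for 4 h, then IA-DTB (500 µM, 1 h), trypsin-digested, NeutrAvidin-enriched and analysed by diaPASEF. Competition ratio = intensity DMSO / intensity compound (n=4 treated, n=64 DMSO); binding: mean log2 CR ≥ 1 and p ≤ 0.05 plus QC filters. Target is the cysteine site.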", "values": [
      {"target": "TAF1C C831 (UniProt Q15572)", "log2 mean competition ratio": 0.00182},
      {"target": "TET2 C353 (UniProt Q6N021)", "log2 mean competition ratio": -0.331},
      {"target": "TADA2A C384 (UniProt O75478)", "log2 mean competition ratio": 0.293},
      {"target": "THUMPD1 C222 (UniProt Q9NXG2)", "log2 mean competition ratio": -0.288},
      {"target": "THUMPD3 C434 (UniProt Q9BV44)", "log2 mean competition ratio": 0.155},
      {"target": "TBC1D9B C340 (UniProt Q66K14)", "log2 mean competition ratio": -0.0759},
      {"target": "TENT2 C217 (UniProt Q6PIY7)", "log2 mean competition ratio": 0.0292},
      {"target": "TDRD7 C692 (UniProt Q8NHU6)", "log2 mean competition ratio": -0.0763},
      {"target": "TBC1D24 C29 (UniProt Q9ULP9)", "log2 mean competition ratio": 0.152},
      {"target": "THADA C683 (UniProt Q6YHU6)", "log2 mean competition ratio": -0.112},
      {"target": "TGM2 C230", "log2 mean competition ratio": -0.519},
      {"target": "TGDS C5 (UniProt O95455)", "log2 mean competition ratio": 0.122},
      {"target": "TANC1 C1136 (UniProt Q9C0D5)", "log2 mean competition ratio": 0.209},
      {"target": "TFIP11 C383 (UniProt Q9UBB9)", "log2 mean competition ratio": -0.139},
      {"target": "TAOK2 C623 (UniProt Q9UL54)", "log2 mean competition ratio": 0.0527},
      {"target": "TEDC1 C417 (UniProt Q86SX3)", "log2 mean competition ratio": -0.235},
      {"target": "TBC1D2B C726 (UniProt Q9UPU7)", "log2 mean competition ratio": 0.018},
      {"target": "TAF10 C174 (UniProt Q12962)", "log2 mean competition ratio": 0.446},
      {"target": "TARS3 C74", "log2 mean competition ratio": 0.327},
      {"target": "TACC2 C2859 (UniProt O95359)", "log2 mean competition ratio": 0.141},
      {"target": "TBCD C899", "log2 mean competition ratio": -0.00333},
      {"target": "TBL2 C367 (UniProt Q9Y4P3)", "log2 mean competition ratio": -0.0834},
      {"target": "TACC3 C662", "log2 mean competition ratio": -0.146},
      {"target": "THUMPD1 C169 (UniProt Q9NXG2)", "log2 mean competition ratio": -0.071},
      {"target": "TDRD7 C103 (UniProt Q8NHU6)", "log2 mean competition ratio": 0.163},
      {"target": "TAMM41 C285 (UniProt Q96BW9)", "log2 mean competition ratio": 0.0558},
      {"target": "TECPR2 C282 (UniProt O15040)", "log2 mean competition ratio": -0.304},
      {"target": "TBCC C184 (UniProt Q15814)", "log2 mean competition ratio": 0.119},
      {"target": "TBC1D7 C195 (UniProt Q9P0N9)", "log2 mean competition ratio": -0.78},
      {"target": "TBC1D4 C74 (UniProt O60343)", "log2 mean competition ratio": 0.0503},
      {"target": "TAX1BP1 C675 (UniProt Q86VP1)", "log2 mean competition ratio": 0.548},
      {"target": "TFDP2 C329 (UniProt Q14188)", "log2 mean competition ratio": 0.203},
      {"target": "TES C164 (UniProt Q9UGI8)", "log2 mean competition ratio": -0.498},
      {"target": "TADA3 C162 (UniProt O75528)", "log2 mean competition ratio": -0.164},
      {"target": "TDRD7 C388 (UniProt Q8NHU6)", "log2 mean competition ratio": -0.0827},
      {"target": "TBC1D22B C354 (UniProt Q9NU19)", "log2 mean competition ratio": 0.339},
      {"target": "TARS3 C62", "log2 mean competition ratio": 0.331}
    ]}
  ]
}
